Test results reported in PubChem BioAssay AID504444 (National Center for Advancing Translational Sciences (NCATS), 2011).
About 7,500 (2.1%) of roughly 360,000 compounds were called active. The shares of active, inactive and inconclusive entries below differ from those in the screen. Calls come from the whole dose curve; as a rule, active = well fitted inhibition curve with a large enough effect; inconclusive = small, poorly fitted or top-dose-only effect, or effect the other way; inactive = flat fitted curve, though single readings scatter. Potencies beside an inconclusive call are fits to weak or partial responses and may not hold up.

Experiment: Nrf2 qHTS screen for inhibitors; note: nearly all actives have a fitted effect of over 60% in size
Details: A549 ARE-Fluc reporter, luciferase luminescence, 18-24 h; series mostly up to 46 µM
How it was run: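 Concentration-response testing used A549 ARE_Fluc cells at 5000 cells/well. Following an 18-24 h compound incubation, viability was read by fluorescence (Ex 405/Em 525) and luciferase output by luminescence.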
Potency is the fitted concentration of half-maximal effect.

SMILES	Potency
CS(=O)(=O)N(CC(=O)N1CCN(Cc2ccccc2)CC1)c1ccccc1F	inconclusive: 23.1 µM [falling, single point]
Cn1cccc1-c1nc2ccc(NC(=O)c3cccs3)cc2[nH]1	active: 17.8 µM
CN(C)CCNC(=O)COc1ccc(C23CC4CC(CC(C4)C2)C3)cc1	inconclusive: 23.1 µM [activator, single point]
CC(C)c1ccc(NC(=O)CN2C(=O)COc3ccc(S(=O)(=O)N4CCCCC4)cc32)cc1	inconclusive: 29.1 µM [falling, single point]
COc1cc2c(cc1NC(=O)CN(C)Cc1ccc(OC)c(OC)c1)oc1ccccc12	active: 16.4 µM
O=C(COc1ccccc1-c1ccccc1)NCCN1C(=O)S/C(=C\c2cccnc2)C1=O	inconclusive: 29.1 µM [falling, single point]
CCCC(=O)NC(c1ccc(OC)c(OC)c1)c1cc(Cl)c2cccnc2c1O (stereo not drawn)	inconclusive: 6.51 µM [falling, partial curve]
Cc1sc2nc(CSc3ccccc3)nc(N3CCC(C(N)=O)CC3)c2c1C	inconclusive: 10.3 µM [falling, partial curve, poor fit]
NNC(=O)CCn1c2ccccc2c2ccccc21	inconclusive: 0.259 µM [falling, partial curve, poor fit]
Cc1ccc(C)c(N2CCN(C(=O)Cn3ncc4c(=O)oc5ccccc5c43)CC2)c1	inactive
CN(C)c1ccc(C(=O)C(O)c2ccccc2Cl)cc1 (stereo not drawn)	inconclusive: 23.1 µM [falling, partial curve, poor fit]
CC(=O)NC(c1ccc(C(C)C)cc1)c1c(O)ccc2ccccc12 (stereo not drawn)	inactive
COc1cc(OC)cc(-c2nc3nc(C)c(CCC(=O)Nc4ccc(C)c(C)c4)c(C)n3n2)c1	inconclusive: 3.66 µM [falling, partial curve, poor fit]
Cc1nn2c(nc(N3CCCCC3)c3ccccc32)c1C=O	inconclusive: 7.31 µM [falling, partial curve, poor fit]
Cc1cccc(NC(=S)Nc2ccccn2)c1C	inconclusive: 0.82 µM [activator, partial curve, poor fit]
CNc1ccc(/C=C(\C#N)c2ccccn2)cc1[N+](=O)[O-]	inconclusive: 4.61 µM [activator, partial curve]
O=C(CNc1ccc(C(F)(F)F)cc1)Nc1cccc(S(=O)(=O)N2CCCC2)c1	inconclusive: 29.1 µM [falling, single point]
C=CC[C@@H](CC(=O)N(CCO)Cc1ccccc1)C(=O)NC[C@@H](OC(=O)[C@@H](CC=C)Cc1ccc(F)cc1)c1ccccc1	inactive
O=C1C2CCCN2C(c2ccc(F)cc2)N1c1ccc(Cl)cc1 (stereo not drawn)	inconclusive: 20.6 µM [activator, single point]
O=C(O)c1cc(-c2ccc(Cl)cc2)n(-c2cccc(Cl)c2)n1	inconclusive: 32.6 µM [falling, partial curve, poor fit]
COc1ccc(N2CCN(C(=O)CN3C(=O)NC(c4ccc(OC)cc4)(c4ccc(OC)cc4)C3=O)CC2)cc1	inconclusive: 23.1 µM [falling, single point]

By substructure: the entries above with an aryl methoxy group
SMILES	Potency
COc1cc2c(cc1NC(=O)CN(C)Cc1ccc(OC)c(OC)c1)oc1ccccc12	active: 16.4 µM
CCCC(=O)NC(c1ccc(OC)c(OC)c1)c1cc(Cl)c2cccnc2c1O (stereo not drawn)	inconclusive: 6.51 µM [falling, partial curve]
COc1cc(OC)cc(-c2nc3nc(C)c(CCC(=O)Nc4ccc(C)c(C)c4)c(C)n3n2)c1	inconclusive: 3.66 µM [falling, partial curve, poor fit]
COc1ccc(N2CCN(C(=O)CN3C(=O)NC(c4ccc(OC)cc4)(c4ccc(OC)cc4)C3=O)CC2)cc1	inconclusive: 23.1 µM [falling, single point]

(next part)

SMILES	Potency
Cc1cc(C)cc(NC(=O)Cn2cc(S(=O)(=O)NC(C)(C)C)c(S(=O)(=O)NC(C)(C)C)c2)c1	inconclusive: 32.6 µM [falling, single point]
O=C(NCCn1cc(SCc2ccccc2Cl)c2ccccc21)c1cccs1	active: 16.4 µM
COc1ccc(C(=O)NC(C)c2nnc(SCc3ccc(Cl)c(Cl)c3)n2C)cc1 (stereo not drawn)	inconclusive: 0.651 µM [falling, full curve, poor fit]
CC(C)c1nc(SCC(=O)N2CCN(c3ccccc3)CC2)c2c(=O)n(C)c(=O)n(C)c2n1	inconclusive: 3.66 µM [falling, partial curve, poor fit]
NC(=O)c1c(NC(=O)c2ccco2)sc2c1CCC2	inconclusive: 5.8 µM [activator, full curve]
Nc1nc2ccccc2n1C(=O)c1ccco1	inconclusive: 2.59 µM [activator, partial curve]
N#Cc1nc(-c2ccc(Cl)cc2)oc1NCc1ccco1	inconclusive: 2.91 µM [activator, full curve]
CCc1c(O)nc(SCC(=O)Nc2nc3ccccc3s2)n(-c2ccccc2)c1=O	inconclusive: 14.6 µM [falling, partial curve]
Cc1ccc(S(=O)(=O)Nc2cccc3ncccc23)s1	active: 14.6 µM
CCCCCCOC(=O)NCC(O)c1ccccc1 (stereo not drawn)	inconclusive: 1.84 µM [activator, full curve, poor fit]
CCOC(=O)N1CCN(C(=O)CSc2ccc(-c3cccc(OC)c3)nn2)CC1	inconclusive: 20.6 µM [falling, partial curve]
CCCN1C(=O)c2cc(C(=O)Nc3ccc(OC)cc3OC)ccc2C1Nc1ccc(OC)cc1OC (stereo not drawn)	inconclusive: 20.6 µM [falling, partial curve]
CC(C)=CCc1c(O)cc2oc3c(CC=C(C)C)c(O)c(O)c(CC=C(C)C)c3c(=O)c2c1O	inconclusive: 25.9 µM [falling, single point]
O=C(c1cc(N2C(=O)C3C4CCC(C4)C3C2=O)ccc1Cl)N1CCN(c2ccccc2F)CC1 (stereo not drawn)	inconclusive: 18.4 µM [falling, partial curve, poor fit]
Cc1ccccc1NC(=O)c1cc(S(=O)(=O)N2CCCCC2)cs1	inconclusive: 11.6 µM [falling, partial curve, poor fit]
CCN(c1ccccc1)S(=O)(=O)c1ccc(Oc2ccc(C(C)=O)cc2OC)nc1	inconclusive: 29.1 µM [falling, single point]
CC(=O)Nc1cccc(NC(=O)c2cc([N+](=O)[O-])ccc2N2CCCCC2)c1	inconclusive: 29.1 µM [falling, single point]
CC1CCCCN1S(=O)(=O)c1ccc(C(=O)Nc2nnc(-c3ccncc3)o2)cc1 (stereo not drawn)	inconclusive: 29.1 µM [falling, single point]
Cc1cccc(C(=O)NCC(=O)OCc2cc(=O)n3nc(CC(C)C)sc3n2)c1	inactive
Cc1ccc(C)c(-n2c(C)cc(/C=N/NC(=O)c3c(C)nc4cc(C)ccn34)c2C)c1	inconclusive: 18.4 µM [falling, single point]
O=C1CCN(CCc2ccccc2)CCN1C(CSc1ccc(Br)cc1)Cc1ccccc1 (stereo not drawn)	inconclusive: 29.1 µM [falling, single point]

SMILES	Potency
CCc1cc2c(=O)c(-c3ccc4c(c3)OCCO4)coc2cc1OC(=O)c1ccco1	inconclusive: 0.58 µM [activator, full curve, poor fit]
Cc1cnc(NC(=O)CSc2nnc3ncccn23)s1	inconclusive: 18.4 µM [falling, partial curve, poor fit]
CCn1ncc(Br)c1C(=O)N(C)C12CC3CC(CC(C3)C1)C2	inconclusive: 29.1 µM [falling, single point]
COCCCNC(=O)/C(C#N)=C/c1c(N2CCN(c3ccccc3)CC2)nc2c(C)cccn2c1=O	inconclusive: 16.4 µM [falling, single point]
CN1CCc2c(c3cnc4cc(Cl)ccc4c3n2C)C1	inactive
Cc1ccccc1C(=O)Nc1scc(-c2ccc(Br)cc2)c1C(=O)O	active: 8.2 µM
NS(=O)(=O)c1ccc(CCNc2nccn(-c3cccc(C(F)(F)F)c3)c2=O)cc1	inconclusive: 20.6 µM [falling, partial curve, poor fit]
CCN(C(=O)c1cc([N+](=O)[O-])ccc1NCc1cccnc1)c1ccccc1	inconclusive: 32.6 µM [falling, partial curve, poor fit]
O=C(COc1ccccc1Cl)Nc1ccc(Cl)cn1	inconclusive: 8.2 µM [activator, partial curve]
COc1ccc(-c2c(-c3cc(OC)c(OC)c(OC)c3)noc2C)cn1	inactive
O=C(Nc1ccccc1Cl)Nc1ccnn1C1CCN(C(=O)c2cscn2)CC1	inconclusive: 29.1 µM [activator, single point]
O=C(c1cc(-c2ccc(Cl)cc2)on1)N1CCN(c2ccccc2)CC1	inconclusive: 16.4 µM [activator, single point]
O=S(=O)(c1ccccc1)N1CCN(C(=S)NC2CCCC2)CC1	inactive
COc1cc2c(cc1OC)C(c1cccs1)N(C(=S)NC(C)C)CC2 (stereo not drawn)	inconclusive: 0.58 µM [activator, full curve, poor fit]
CCCCN(CCCC)CCNC(=O)Cn1nc(C)n2c(cc3sccc32)c1=O	inconclusive: 2.31 µM [falling, partial curve, poor fit]
Cc1ccc(S(=O)(=O)NC(CC(C)C)C(=O)NCC(c2ccco2)N2CCCCC2)cc1 (stereo not drawn)	inconclusive: 7.31 µM [activator, partial curve]
O=C(CCSCc1ccccc1Cl)NC1CCCC1	inconclusive: 0.58 µM [activator, full curve]
Cc1ccc(NC(=O)Nc2cnccn2)cc1	inconclusive: 20.6 µM [activator, single point]
N=c1c(C(=O)NCCc2ccccc2)cc2c(=O)n3ccccc3nc2n1Cc1ccco1	inactive
Cc1cccnc1NC(=S)NCCc1ccccc1	inconclusive: 8.2 µM [activator, partial curve]
O=C(c1ccccc1)n1nc(-c2ccccc2)nc1NCc1ccc(F)cc1	inconclusive: 23.1 µM [falling, partial curve, poor fit]
